Values of other authors, collected in patent US6902881B2, “Compounds and methods for regulating cell differentiation” (priority 2000, dated 2005).
At least one compound was matched to its structure with a doubt left.

Test system: HT 29 Cancer Cells
Conditions: HT 29, literature reference 26; cited from earlier work

Cc1c(C)c2c(c(C)c1O)CCC(C)(COc1ccc(CC3SC(=O)NC3=O)cc1)O2 (stereo not drawn) [Troglitazone, troglitazone]
cells in G1: 67% | cells in G2: 16% | cells in S: 13%
